The target of the assay is TMEM16F (UniProt Q6P9J9). Briefly: cryo-EM structure; TMEM16F in lipid nanodiscs with Ca2+ and PIP2, with or without niclosamide or 1PBC; single particle cryo-EM of tilted specimen; no symmetry imposed (C1); both purified.

Protein sequences, listed by entry. Tags and fused reporters are not part of them.
UniProt Q6P9J9: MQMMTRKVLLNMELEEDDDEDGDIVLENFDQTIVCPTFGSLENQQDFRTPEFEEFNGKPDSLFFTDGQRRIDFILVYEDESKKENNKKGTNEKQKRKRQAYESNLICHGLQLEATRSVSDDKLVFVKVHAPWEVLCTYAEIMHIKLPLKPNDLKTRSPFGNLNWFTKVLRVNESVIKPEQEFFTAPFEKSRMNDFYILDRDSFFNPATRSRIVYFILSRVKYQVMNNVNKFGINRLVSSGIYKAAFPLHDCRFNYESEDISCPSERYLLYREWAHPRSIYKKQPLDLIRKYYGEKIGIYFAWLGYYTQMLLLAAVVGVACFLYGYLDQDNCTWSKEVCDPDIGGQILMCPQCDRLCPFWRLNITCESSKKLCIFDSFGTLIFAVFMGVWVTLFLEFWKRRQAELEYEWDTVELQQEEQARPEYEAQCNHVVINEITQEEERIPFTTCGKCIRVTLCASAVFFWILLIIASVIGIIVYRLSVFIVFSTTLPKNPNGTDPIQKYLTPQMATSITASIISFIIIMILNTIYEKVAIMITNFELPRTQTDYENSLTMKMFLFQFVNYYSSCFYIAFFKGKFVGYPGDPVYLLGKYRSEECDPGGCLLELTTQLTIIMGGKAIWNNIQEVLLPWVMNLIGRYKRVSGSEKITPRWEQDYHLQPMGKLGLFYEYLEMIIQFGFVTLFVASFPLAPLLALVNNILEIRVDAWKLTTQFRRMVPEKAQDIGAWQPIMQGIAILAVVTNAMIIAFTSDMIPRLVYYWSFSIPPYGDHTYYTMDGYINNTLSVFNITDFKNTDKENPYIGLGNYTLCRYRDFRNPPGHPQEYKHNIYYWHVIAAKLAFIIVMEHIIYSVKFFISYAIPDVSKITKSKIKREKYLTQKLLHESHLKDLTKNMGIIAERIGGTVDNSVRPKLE

No constants are given. Whether binding was seen depends on the method and setting. Some binding calls cover weakened binding; strength is not graded here.

Here are results for 1 substance from paper PMC8845511.

Turning to TMEM16F (from UniProt Q6P9J9 1-911), the binding entry is on record as “binds”.
